Assay results taken from PubChem BioAssay AID1671190 (National Center for Advancing Translational Sciences (NCATS), 2021).
The whole screen tested about 580,000 compounds, of which about 6,100 (1.1%) were called active. The shares of active, inactive and inconclusive entries below differ from those in the screen. Calls follow the shape of the dose curve; as a rule, active = well fitted inhibition curve with a large enough effect; inconclusive = small, poorly fitted or top-dose-only effect, or another doubt; inactive = no such curve, though single readings can be large or run the other way. Potencies beside an inconclusive call are fits to weak or partial responses and may not hold up.

By UniProt entry, the sequences of proteins in these tests, tags left out. Where a name states a change or a piece, a line headed by the entry shows the natural chain unless it says otherwise.
UniProt P18054: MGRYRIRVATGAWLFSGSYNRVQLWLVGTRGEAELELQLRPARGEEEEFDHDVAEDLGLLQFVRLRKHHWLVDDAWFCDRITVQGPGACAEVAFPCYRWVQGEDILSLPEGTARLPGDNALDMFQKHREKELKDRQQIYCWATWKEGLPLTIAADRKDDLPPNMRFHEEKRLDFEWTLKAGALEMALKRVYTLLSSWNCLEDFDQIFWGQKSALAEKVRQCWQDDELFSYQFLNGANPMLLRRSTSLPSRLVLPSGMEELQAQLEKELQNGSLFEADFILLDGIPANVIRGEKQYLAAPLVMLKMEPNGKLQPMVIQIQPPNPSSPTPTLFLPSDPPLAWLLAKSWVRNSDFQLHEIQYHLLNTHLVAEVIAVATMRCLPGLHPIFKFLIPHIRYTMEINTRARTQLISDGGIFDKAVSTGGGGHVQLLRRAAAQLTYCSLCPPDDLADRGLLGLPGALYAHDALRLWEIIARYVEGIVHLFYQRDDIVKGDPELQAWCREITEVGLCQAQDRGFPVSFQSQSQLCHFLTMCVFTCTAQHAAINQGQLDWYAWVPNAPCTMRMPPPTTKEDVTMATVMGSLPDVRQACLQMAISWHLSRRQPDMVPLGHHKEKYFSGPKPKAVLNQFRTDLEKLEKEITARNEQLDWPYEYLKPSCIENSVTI

Each compound was assayed against Polyunsaturated fatty acid lipoxygenase ALOX12 (Homo sapiens) (UniProt P18054) (assay: Primary qHTS assay for inhibitors of human arachidonate 12S-lipoxygenase (ALOX12): Round 2). Conditions: purified 12hLO, xylenol orange hydroperoxide absorbance; series mostly up to 108 µM.
Procedure, shortened: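 Hydroperoxide product was detected by ferrous iron/xylenol orange as the 573 to 405 nm absorbance ratio. Arachidonic acid at 40 uM (final) was turned over for 30 min at room temperature by 150 nM human 12hLO, pH 7.0 Hepes buffer, after 15 min compound preincubation.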
Potency is read from the fitted curve at half-maximal effect.

Row | Structure (SMILES) | Potency
1 | CCC(C)C(=O)NCc1cccc(COC)c1 (stereo not given) | inactive
2 | Cc1nc(CNC(=O)c2csc(-c3ccc(C(F)(F)F)cc3)n2)no1 | inactive
3 | CCN(CC)S(=O)(=O)c1ccc(NC(=O)C2CCCN(C(=O)c3ccc(Cl)cc3)C2)cc1 (stereo not given) | inconclusive: 126 µM [inhibitor, single point]
4 | CC(C)Cc1nnc(NC(=O)Cc2cccs2)s1 | inconclusive: 50.1 µM [inhibitor, partial curve, poor fit]
5 | O=C(c1ccoc1)N1CCc2onc(C(c3ccccc3)c3ccccc3)c2C1 | inactive
6 | CNC(NC(=O)c1ccc(F)cc1)C(Cl)(Cl)Cl (stereo not given) | inconclusive: 5.01 µM [inhibitor, full curve, poor fit]
7 | COc1cccc(CNC(=O)CN2C(=O)NC(c3ccccc3)(c3ccccc3)C2=O)c1 | inactive
8 | OC1CCOC2(CCN(Cc3cccc4[nH]ccc34)CC2)C1 (stereo not given) | inactive
9 | Cc1ccc(NC(=S)NCCc2ccccc2)nc1 | inconclusive: 44.7 µM [inhibitor, partial curve, poor fit]
10 | Cc1cc(C)nc(SCC(=O)NN=Cc2ccc(C)o2)n1 | inconclusive: 35.5 µM [inhibitor, partial curve, poor fit]
11 | CCc1ccc(-n2nnnc2N2CCN(C(=O)Nc3ccc(C)c(F)c3)CC2)cc1 | inconclusive: 39.8 µM [inhibitor, partial curve]
12 | COc1cccc(/C=C2\CCC(C3CCCC3)C2=O)c1 (stereo not given) | inconclusive: 31.6 µM [inhibitor, partial curve, poor fit]
13 | O=C(CN1CCC(C(=O)c2ccc(F)cc2)CC1)Nc1ccccc1Cl | inactive
14 | O=S(=O)(c1cccc2cccnc12)n1cnc2ccccc21 | inconclusive: 39.8 µM [inhibitor, single point]
15 | CC1=CC(C)(C)N(C(=O)CN2C(=O)CCC2=O)c2ccc(C)cc21 | inactive
16 | O=C(CNC(=O)c1ccccc1Cl)OCc1cc(=O)n2nc(C3CC3)sc2n1 | inactive
17 | COc1cc2nc(N3CCCN(C)CC3)nc(NC3CCN(Cc4ccccc4)CC3)c2cc1OC | inconclusive: 4.32 µM [inhibitor, full curve]
18 | CN(C)CCCN(C(=O)COc1ccc(Cl)cc1)c1nc2cc3c(cc2s1)OCO3 | inconclusive: 44.7 µM [inhibitor, partial curve, poor fit]
19 | Cc1c(C(=O)NC2=NCCS2)oc2c(Cl)cccc12 | inconclusive: 28.2 µM [inhibitor, partial curve, poor fit]
20 | O=C(Nc1cccc(F)c1)c1nnc(CSCC(=O)N2CCOCC2)s1 | inactive
21 | COc1cc(C2C(C(=O)c3cccs3)=C(O)C(=O)N2CCN2CCOCC2)cc(OC)c1OC (stereo not given) | inactive
22 | Cc1sc2ccccc2[n+]1CCC(C)S(=O)(=O)[O-] (stereo not given) | inactive
23 | CCc1cccc(NC(=O)c2ncoc2-c2cccs2)c1 | inactive
24 | COc1cccc(CN2CCc3c(cc(C(=O)Nc4ccccc4)n3C)C2)c1 | inactive

Row | Structure (SMILES) | Potency
25 | CCOC(=O)C1CCCN(C(=O)c2cc3c(Cl)nc4ccccc4c3s2)C1 (stereo not given) | inactive
26 | COc1cccc2sc(N(Cc3cccnc3)C(=O)C3CCCCC3)nc12 | inconclusive: 126 µM [inhibitor, single point]
27 | COc1ccc(OC)c(NC(=O)CCC(=O)Oc2ccc(C)cc2)c1 | inconclusive: 15.8 µM [inhibitor, partial curve, poor fit]
28 | Cc1ccc(S(=O)(=O)NCc2ccc(C(=O)NCCCN3CCC(Cc4ccccc4)CC3)cc2)cc1 | inconclusive: 50.1 µM [inhibitor, partial curve, poor fit]
29 | CC(=O)Oc1ccc2c(=O)c(Oc3ccccc3)coc2c1OC(C)=O | inconclusive: 56.2 µM [inhibitor, partial curve]
30 | CC(Oc1ccc(Br)cc1)C(=O)Nc1nc(-c2ccccn2)cs1 (stereo not given) | inconclusive: 44.7 µM [inhibitor, partial curve, poor fit]
31 | c1ccc(N=NC2=NN(c3ccccc3)CS2)cc1 | inconclusive: 25.1 µM [inhibitor, partial curve, poor fit]
32 | Cc1cc(C)nc(NC2=NCC(=O)N2CCc2c[nH]c3ccccc23)n1 | inactive
33 | Oc1cccc(/C=N/N(Cc2ccccc2)c2ccccc2)c1 | active: 50.1 µM
34 | CC(C)SC1=NC(C)(C)C=C(/C=C/c2ccc(Cl)cc2Cl)N1 | inconclusive: 44.7 µM [inhibitor, single point]
35 | CCOc1ccc(C2c3c(-c4ccccc4O)n[nH]c3C(=O)N2Cc2cccnc2)cc1OC (stereo not given) | inactive
36 | CSc1ccccc1C(=O)Nc1ncn[nH]1 | active: 11.2 µM
37 | COc1ccc2c(c1)c(=O)oc1cc(OCC(=O)NC3CC3)ccc12 | inactive
38 | CC(C)c1ccc(-c2csc(NC(=O)Cn3cnc4c3c(=O)n(C)c(=O)n4C)n2)cc1 | inactive
39 | O=C(C1CCN(S(=O)(=O)c2cc(Cl)ccc2Cl)CC1)N1CCOCC1 | inconclusive: 50.1 µM [inhibitor, partial curve, poor fit]
40 | CC1=C(C(N)=O)C(c2cccs2)n2nc(-c3cccc(C)c3)nc2N1 (stereo not given) | inconclusive: 141 µM [inhibitor, single point]
41 | CC(NC(=O)c1ccccc1Br)C1CC2CCC1C2 (stereo not given) | inconclusive: 100 µM [inhibitor, single point]
42 | COc1cccc(S(=O)(=O)Nc2ccc3sc(C)nc3c2)c1 | inconclusive: 44.7 µM [inhibitor, partial curve, poor fit]
43 | O=C1CC(c2ccccc2)Cc2[nH]c(=O)c(C(=O)Nc3ccc(F)cc3)cc21 (stereo not given) | inactive
44 | O=C1CN(C(=O)c2ccccc2)c2ccccc2N1 | inactive
45 | O=C(COC(=O)[C@@H]1CCCN1C(=O)c1cccs1)NCCc1ccccc1 | inconclusive: 100 µM [inhibitor, partial curve, poor fit]
46 | CC1(C(=O)NC2CC3CC2C2CCCC32)CC1(Cl)Cl (stereo not given) | inconclusive: 50.1 µM [inhibitor, single point]
47 | CCc1cc(=O)oc2cc(OC(C)C(=O)Nc3ccccc3F)ccc12 (stereo not given) | inconclusive: 70.8 µM [inhibitor, single point]
48 | O=C(/C=C/[C@H]1O[C@@H](n2ccc(=O)[nH]c2=O)[C@H](O)[C@@H]1O)NCc1cccnc1 | inconclusive: 12.6 µM [inhibitor, partial curve, poor fit]

Reprinted at random: two records from the list.
Row | Structure (SMILES) | Potency
26 | COc1cccc2sc(N(Cc3cccnc3)C(=O)C3CCCCC3)nc12 | inconclusive: 126 µM [inhibitor, single point]
38 | CC(C)c1ccc(-c2csc(NC(=O)Cn3cnc4c3c(=O)n(C)c(=O)n4C)n2)cc1 | inactive

(further entries)

Row | Structure (SMILES) | Potency
49 | CC(C)Oc1ccc(C(=O)Oc2ccc(C#N)cc2)cc1 | inconclusive: 15.8 µM [inhibitor, full curve, poor fit]
50 | CSC(C)C(=O)Nc1ccc(C)c(I)c1 (stereo not given) | inconclusive: 15.8 µM [inhibitor, full curve, poor fit]
51 | Cc1noc(/C=C/c2ccccc2F)c1S(=O)(=O)N1CCCC(C(=O)N2CCC(C)CC2)C1 (stereo not given) | inactive
52 | COc1ccc(NC(=O)N(C)C[C@@H]2OCc3cnnn3CCCC(=O)N([C@@H](C)CO)C[C@H]2C)c(OC)c1 | inconclusive: 2.82 µM [inhibitor, partial curve, poor fit]
53 | C[C@H]1CN([C@@H](C)CO)C(=O)c2cc(C#CC3CCCC3)cnc2O[C@H]1CN(C)C(=O)Cc1ccccn1 | inconclusive: 35.5 µM [inhibitor, partial curve, poor fit]
54 | CCOc1ccc(S(=O)(=O)N2CCCC(C(=O)N3CCN(c4ccccc4)CC3)C2)cc1 (stereo not given) | inactive
55 | Cc1ncc(C[n+]2ccc(C)c(C)c2)c(N)n1 | inconclusive: 7.94 µM [inhibitor, full curve, poor fit]
56 | Cc1ccc(NC(=O)c2ccc3c(c2)NC(=O)CS3)nc1 | inconclusive: 44.7 µM [inhibitor, partial curve, poor fit]
57 | CCCCn1c(N)c(N(CCC(C)C)C(=O)c2ccc([N+](=O)[O-])s2)c(=O)[nH]c1=O | inconclusive: 126 µM [inhibitor, partial curve, poor fit]
58 | S=C(NCc1ccc2c(c1)OCO2)Nc1ccc2nsnc2c1 | inconclusive: 79.4 µM [inhibitor, partial curve, poor fit]
59 | Cc1ccccc1-c1nc(CS(=O)CC(=O)NCCCN(C)c2ccccc2)c(C)o1 (stereo not given) | inactive
60 | O=C(NC1CCN(Cc2ccccc2)CC1)C1CCN(S(=O)(=O)c2ccc(F)c(F)c2)CC1 | inconclusive: 79.4 µM [inhibitor, single point]
61 | Cc1ccc(-c2nnc(-c3ccccc3)c(N3CCOCC3)n2)cc1 | inactive
62 | COc1ccc2nc(-c3ccc(CN4CCC5(CC4)CNc4ccccc45)cc3)c(-c3ccccc3)nc2c1 | inconclusive: 31.6 µM [inhibitor, partial curve, poor fit]
63 | COCCNC(=O)c1nc2c(o1)CCN(Cc1ccc(F)c(Cl)c1)CC2 | inconclusive: 44.7 µM [inhibitor, full curve, poor fit]
64 | CC(=O)NCCNc1nc(NCc2cccs2)nc2ccsc12 | inconclusive: 100 µM [inhibitor, partial curve, poor fit]
65 | Cc1ccnc(NC(=O)CN2C(=O)c3ccccc3C2=O)c1 | inactive
66 | CN1CCN(C(=O)c2cccnc2-c2nc3ccccc3s2)CC1 | active: 31.6 µM
67 | Cc1ccc(-c2cc(C(=O)NCCNC(=O)c3ccco3)c3ccccc3n2)c(C)c1 | inconclusive: 79.4 µM [inhibitor, partial curve, poor fit]
68 | CC1=CCC(/C=N/NC(N)=O)CC1 (stereo not given) | inactive
69 | COc1ccc(CN2CCCC(c3nc(-c4ccncc4)ncc3-c3ccccc3)C2)cc1OC (stereo not given) | inconclusive: 112 µM [inhibitor, single point]
70 | COc1ccc(CC(Cc2ccc(OC)c(OC)c2)NC=O)cc1OC | inconclusive: 0.316 µM [inhibitor, full curve, poor fit]

Copied from above: entries 34 to 35
Row | Structure (SMILES) | Potency
34 | CC(C)SC1=NC(C)(C)C=C(/C=C/c2ccc(Cl)cc2Cl)N1 | inconclusive: 44.7 µM [inhibitor, single point]
35 | CCOc1ccc(C2c3c(-c4ccccc4O)n[nH]c3C(=O)N2Cc2cccnc2)cc1OC (stereo not given) | inactive
